From PMC7180057

T1: Tctn-GFP (pTub-Tctn-GFP) (Drosophila melanogaster) (UniProt Q9VMH0)
T1 sequence: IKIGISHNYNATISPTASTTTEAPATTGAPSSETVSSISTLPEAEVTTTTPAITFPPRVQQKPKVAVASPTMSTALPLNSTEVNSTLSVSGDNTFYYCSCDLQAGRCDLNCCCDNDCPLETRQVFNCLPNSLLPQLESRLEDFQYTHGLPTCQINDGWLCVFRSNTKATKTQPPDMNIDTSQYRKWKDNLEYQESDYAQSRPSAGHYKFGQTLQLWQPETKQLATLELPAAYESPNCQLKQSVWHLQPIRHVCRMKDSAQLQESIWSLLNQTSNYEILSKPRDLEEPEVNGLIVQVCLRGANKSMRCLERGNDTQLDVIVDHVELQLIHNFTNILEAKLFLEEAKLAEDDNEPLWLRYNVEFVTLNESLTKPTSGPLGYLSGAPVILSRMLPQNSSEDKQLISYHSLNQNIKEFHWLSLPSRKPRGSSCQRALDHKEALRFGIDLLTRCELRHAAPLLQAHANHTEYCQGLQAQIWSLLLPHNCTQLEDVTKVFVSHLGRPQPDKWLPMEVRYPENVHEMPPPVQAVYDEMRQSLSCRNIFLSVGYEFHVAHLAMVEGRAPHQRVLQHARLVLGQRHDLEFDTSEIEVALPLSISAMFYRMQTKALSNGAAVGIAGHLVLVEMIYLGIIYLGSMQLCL


Experiments:
[1] = target: T1, Tctn-GFP (pTub-Tctn-GFP) (Drosophila melanogaster); experiment: pull-down; GFP pull-down with GFP-Trap agarose from lysates of transfected S2 cells (10 mM Tris-HCl pH 7.5, 150 mM NaCl, 0.5 mM EDTA, 1% Triton-X-100, diluted), 4°C, four washes with 350 mM NaCl; Dsh-GFP or Tctn-GFP held, Vang-Flag detected by Western blot (Figure 6A)
[2] = target: Vang-K418C-Flagx3 (Drosophila melanogaster); experiment: pull-down; Flag pull-down with anti-Flag M2 affinity gel from lysates of transfected S2 cells (50 mM Tris-HCl pH 7.5, 150 mM NaCl, 1 mM EDTA, 1% Triton-X-100), 4°C, washes with 350 mM NaCl and with 500 mM NaCl, 0.1% SDS; Flag-tagged Vang held, Dsh-GFP, Myc-Pk or HA-Dgo detected by Western blot (Figure 6B, C, D, F)
[3] = target: Vang-R332H-Flagx3 (Drosophila melanogaster); experiment: as above
[4] = target: Vang-V391T-Flagx3 (Drosophila melanogaster); experiment: as above
[5] = target: Vang-Flag wild-type (pUAS-Vang-Flagx3) (Drosophila melanogaster); experiment: as above

binding [1]	binding [2]	binding [3]	binding [4]	binding [5]	Molecule
no binding	–	–	–	–	Vang-Flag wild-type (pUAS-Vang-Flagx3) (Drosophila melanogaster)
–	binds	binds	binds	binds	Myc-Pk (pAc5.1-Myc-Pk) (protein, UniProt A1Z6W3 1-1299) MSSLSTGGGAGGSSGGPGGADAAAAPAAGQATVTATGNMEPAMVPRTANLLACKQWWRVCFLYGDQQKYYRQLYSKAAAQRLADANQEPDNARDREYDTVDCDLIAGQLDAVEDADDGIDLGDHSSTPKGGATTAGRPLFPHSSSPRRSKKLLRSLRAHVRGEKLPKNDTTTANESSEVTQRNARVTVLDDPFLFGIDADHLGDLVVRGKRYSTLDATENMARFYAEQEATAQVLEIIEQEEESPEQEAPKPALPPKQKQQRPVPPLPPPPANRVTQDQGTQPAAPQVPLQPLTAGDLQFLNLSLRQRSLPRSMKPFKDAHDISFTFNELDTSAEPEVATGAAQQESNEPISRTPLTQISYLQKIPTLPRHFSPSGQGLATPPALGSGGMGLPSSSSASALYAAQAAAGILPTSPLPLQRHQQYLPPHHQQHPGAGMGPGPGSGAAAGPPLGPQYSPGCSANPKYSNAQLPPPPHHHHQLSPALSTPSPPSLLHHPAGGTSSASAHAPFLGGPHMDMQRQSHSDDDSGCALEEYTWVPPGLRPDQVRLYFSQIPDDKVPYVNSPGEQYRVRQLLHQLPPHDNEVRYCHSLTDEERKELRLFSTQRKRDALGRGNVRQLMSARPCDGCDDLISTGDIAVFATRLGPNASWHPACFACSVCRELLVDLIYFHRDGRMYCGRHHAETLKPRCSACDEIILADECTEAEGRAWHMNHFACHECDKQLGGQRYIMREGKPYCLHCFDAMFAEYCDYCGEAIGVDQGQMSHDGQHWHATDECFSCNTCRCSLLGRAFLPRRGAIYCSIACSKGEPPTPSDSSGTGMYTTPTPPTQRVRPHPQAPLPARIPSSHASSSPPMSPQQQQQHQATFNQAMYQMQSQQMEAAGGLVDQSKSYAASDSDAGVVKDLEHGGHMGGGDLTDFSGGRASSTSQNLSPLNSPGDFQPHFLPKPMELQRDGVYNFNEMSSNLDAAWSAKPTNSYHLQRQLLENPHTASMPELAGKLVAPPAHMQHLSQLHAVSSHQFQQHEYADILHPPPPPPGEIPELPTPNLSVASTALPPELMGSPTHSAGDRSLNTPMSTQSASHAPPHPVSILSGASSSSPMSGEPAKKKGVRFEGIPDTLPRSRSYSGNGAGTSGGGERERDRDKDKEGGGRHGHGHSSRRRRRRKSSSSSSHHRSGSGHRSHSTTRADTYAPAQPLSSSYQGPPSVLQAANLVHESPSRQQREREREREREESEESDVCSTCSSSSSSSEDYMMMYQLPQRRHYGGVRVSYVPNDALAYDRKRKPSELGGDKDKNCIIS

Results are given in words; binding and its absence hold for the method and conditions named. In cells and extracts the contact can be indirect. For some assays here: Binding can be weak; no strength is given. Tags and fused reporters may be left off the sequences shown.
